Patent US20240059789A1
No constants are given. Whether binding was seen depends on the method and setting. Some entries that bind do so weakly or less than the wild type.

Amino acid sequences for entries named in this document (tags omitted). A change or cut given only in a name is not applied to a line headed by its entry.
UniProt P07766: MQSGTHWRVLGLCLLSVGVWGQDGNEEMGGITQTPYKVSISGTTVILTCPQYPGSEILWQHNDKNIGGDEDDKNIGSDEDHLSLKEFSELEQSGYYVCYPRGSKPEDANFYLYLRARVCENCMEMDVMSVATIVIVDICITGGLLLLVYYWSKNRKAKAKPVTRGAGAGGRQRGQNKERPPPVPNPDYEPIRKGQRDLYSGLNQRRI

Molecular target: Human CD3 on T cells / Jurkat cells (human) (UniProt P07766)
Test: flow cytometry on Jurkat cells, hybridoma antibody

binding: binds
B1: clone 065_D03 (antibody, human IgG1, kappa, V domains shown)
VH: EVQLVESGGGLVKPGGSLRLSCAASGFTFSRYNMNWVRQAPGKGLEWVSSISTSSNYIYYADSVKGRFTFSRDNAKNSLDLQMSGLRAEDTAIYYCTRGWGPFDYWGQGTLVTVSS
VL: DILLTQSPGILSVSPGERVSFSCRARQSIGTAIHWYQQRTNGSPRLLIKYASESISGIPSRFSGSGSGTDFTLTINSVESEDIADYYCQQSNSWPYTFGGGTKLEIKR
